# Assay results from patent EP4035671A1, “COMPOSITION FOR SYMPATHETIC NERVE ACTIVATION” (Morinaga Milk Industry Co., Ltd., priority 2019, dated 2022).
# Part of at least one peptide drawing is inferred or uncertain, most often the ends. Where a SMILES comes first, the peptide text is derived from it. Where no end group is shown, it is not given here.
# Tested on: sympathetic nerve
# Experiment: Energy expenditure after oral administration (indirect calorimetry), used as index of sympathetic nerve activity
# Assay type: in vivo, Male C57BL/6J mice
# Conditions: 1 µg/g body weight orally, n = 8, crossover test, vs water-administered group; values only in Fig. 2
row,Molecule,relative value of energy expenditure (AUC) for 30 minutes after administration with respect to the water-administered group
1,"CC[C@H](C)[C@H](NC(=O)[C@@H](N)C(C)C)C(=O)N1CCC[C@H]1C(=O)N[C@@H](Cc1ccc(O)cc1)C(=O)O [SEQ ID NO: 9, VIPY] (H-VIPY-OH)",increased
2,"IISQE [SEQ ID NO: 7, IISQE]",increased
3,"VAPFPE [SEQ ID NO: 1, VAPFPE]",increased
